Amino acid sequences for entries named in this document (tags omitted).
protease inhibitor Eglin, P01051, UniProt P01051, whole entry, looked up: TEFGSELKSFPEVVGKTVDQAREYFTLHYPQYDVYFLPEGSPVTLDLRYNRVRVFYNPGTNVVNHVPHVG

According to US6524814:

Target: protease inhibitor Eglin, P01051

B1: recombinant protein encoded by the p62 clone fragment, amino acids 56 to 300 of SEQ ID NO:4 (krill-derived multifunctional protein) (protein)
chain: GPVAPRNKIVGGMEVTPHAYPWQVGLFIDDMYFCGGSIISDEWVLTAAHCMDGAGFVEVVMGAHSIHDETEATQVRATSTDFFTHENWNSFTLSNDLALIKMPAPIEFNDVIQPVCLPTYTDASDDFVGESVTLTGWGKPSDSAFGIAEQLREVDVTTITTADCQAYYGIVTDKILCIDSEGGHGSCNGDSGGPMNYVTGGVTQTRGITSFGSSTGCETGYPDGYTRVTSYLDWIESNTGIAIDP
proteolytic activity (cleavage of the model substrate succinyl-ala-ala-pro-phe-p-nitroanilide): The proteolytic activity was inhibited by the protease inhibitor Eglin
